According to publication PMC12134225:
No constants are given. Whether binding was seen depends on the method and setting. In cells and extracts the contact can be indirect. Some results given as binding are weak or reduced against the parent protein; the word gives no strength.

Protein sequences, listed by entry. Tags and fused reporters are not part of them. Lines headed by an entry give the natural chain unless they say otherwise; changes in a name come on top.
UniProt Q96P20: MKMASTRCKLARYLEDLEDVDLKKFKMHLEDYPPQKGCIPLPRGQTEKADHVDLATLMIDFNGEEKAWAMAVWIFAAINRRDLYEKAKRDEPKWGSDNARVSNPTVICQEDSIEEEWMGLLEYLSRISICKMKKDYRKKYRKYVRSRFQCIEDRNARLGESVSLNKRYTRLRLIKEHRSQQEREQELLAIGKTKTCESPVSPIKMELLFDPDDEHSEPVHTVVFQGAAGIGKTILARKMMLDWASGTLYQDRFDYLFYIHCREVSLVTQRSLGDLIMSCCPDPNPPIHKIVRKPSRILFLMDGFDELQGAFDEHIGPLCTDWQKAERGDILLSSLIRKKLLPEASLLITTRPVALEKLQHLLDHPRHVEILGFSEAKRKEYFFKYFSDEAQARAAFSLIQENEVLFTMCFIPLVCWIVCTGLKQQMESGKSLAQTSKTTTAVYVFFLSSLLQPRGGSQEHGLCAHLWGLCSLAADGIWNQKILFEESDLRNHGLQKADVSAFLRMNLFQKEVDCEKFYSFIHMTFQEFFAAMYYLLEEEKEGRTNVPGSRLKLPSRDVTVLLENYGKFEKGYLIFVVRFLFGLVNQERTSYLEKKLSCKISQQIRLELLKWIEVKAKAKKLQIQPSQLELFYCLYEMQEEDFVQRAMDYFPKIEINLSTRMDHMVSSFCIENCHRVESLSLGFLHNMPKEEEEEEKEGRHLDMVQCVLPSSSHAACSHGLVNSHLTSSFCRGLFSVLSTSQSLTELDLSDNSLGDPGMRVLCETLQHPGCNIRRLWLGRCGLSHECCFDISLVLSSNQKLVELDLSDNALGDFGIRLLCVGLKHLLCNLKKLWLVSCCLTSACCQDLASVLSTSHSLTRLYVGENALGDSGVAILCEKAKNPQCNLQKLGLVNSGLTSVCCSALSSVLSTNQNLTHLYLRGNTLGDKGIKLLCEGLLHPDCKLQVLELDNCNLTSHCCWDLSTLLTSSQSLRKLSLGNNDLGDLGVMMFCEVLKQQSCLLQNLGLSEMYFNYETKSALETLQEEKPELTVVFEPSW

Target: T1, ZDHHC7 (UniProt Q9NXF8)
T1 sequence: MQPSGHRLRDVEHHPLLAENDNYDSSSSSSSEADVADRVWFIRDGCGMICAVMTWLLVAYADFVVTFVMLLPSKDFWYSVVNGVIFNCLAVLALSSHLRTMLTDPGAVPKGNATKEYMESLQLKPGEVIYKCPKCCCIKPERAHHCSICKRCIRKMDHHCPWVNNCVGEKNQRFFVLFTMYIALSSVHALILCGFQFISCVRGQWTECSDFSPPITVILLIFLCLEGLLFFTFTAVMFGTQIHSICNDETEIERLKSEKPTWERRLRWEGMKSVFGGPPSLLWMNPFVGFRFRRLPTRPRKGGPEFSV
Experiment: co-IP; cotransfected HEK293T cells, 24 h; lysis buffer with 0.5% Triton X-100, 20 mM HEPES pH 7.4, 150 mM NaCl; anti-GFP or anti-Flag beads overnight at 4 °C; three PBS washes; immunoblot

| binding | Substance |
| --- | --- |
| no binding | GFP-S261 (GFP fused to hNLRP3 residues 254-268 with C261S) (from UniProt Q96P20 254-268) (domain or fragment) |
| binds | NLRP3 (overexpressed) (from UniProt Q96P20 1-1036) |
| binds | GFP-C261 (GFP fused to hNLRP3 residues 254-268) (from UniProt Q96P20 254-268) (domain or fragment) |
